Source: the supplement of paper PMC9233669
Variants at the background level are over-represented here.

Columns and labels:
[1] = test system: biotinyl-Trp-oxazolone; assay: self-aminoacylation, catalytic enhancement (BWO) (fold over background); higher = more active; k-Seq, kA / k0A0; sequences stand for … in GGGAAUGGAUCCACAUCUACGAAUUC…UUCACUGCAGACUUGACGAAGCUG
Summary of the method: (§1)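 Mutagenized RNA pools (0.43 μM; 21-nt variable region) were treated with 2–1250 μM of each biotinyl-aminoacyl-oxazolone. Conditions were 50 μL HEPES/NaCl/KCl/MgCl2/CaCl2 buffer, 5% acetonitrile, pH 6.9–7.0, room temperature, 90 minutes. Catalytic enhancement, the median kA relative to the uncatalyzed rate, was derived from streptavidin capture, qPCR and Illumina sequencing.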

[2] = test system: biotinyl-Leu-oxazolone; assay: self-aminoacylation, catalytic enhancement (BLO) (fold over background); higher = more active; k-Seq, kA / k0A0; sequences stand for … in GGGAAUGGAUCCACAUCUACGAAUUC…UUCACUGCAGACUUGACGAAGCUG
Summary of the method: as §1

[3] = test system: biotinyl-Val-oxazolone; assay: self-aminoacylation, catalytic enhancement (BVO) (fold over background); higher = more active; k-Seq, kA / k0A0; sequences stand for … in GGGAAUGGAUCCACAUCUACGAAUUC…UUCACUGCAGACUUGACGAAGCUG
Summary of the method: as §1

[4] = test system: biotinyl-Ile-oxazolone; assay: self-aminoacylation, catalytic enhancement (BIO) (fold over background); higher = more active; k-Seq, kA / k0A0; sequences stand for … in GGGAAUGGAUCCACAUCUACGAAUUC…UUCACUGCAGACUUGACGAAGCUG
Summary of the method: as §1

[5] = test system: biotinyl-Met-oxazolone; assay: self-aminoacylation, catalytic enhancement (BMO) (fold over background); higher = more active; k-Seq, kA / k0A0; sequences stand for … in GGGAAUGGAUCCACAUCUACGAAUUC…UUCACUGCAGACUUGACGAAGCUG
Summary of the method: as §1

[6] = test system: biotinyl-Phe-oxazolone; assay: self-aminoacylation, catalytic enhancement (BFO) (fold over background); higher = more active; k-Seq, kA / k0A0; sequences stand for … in GGGAAUGGAUCCACAUCUACGAAUUC…UUCACUGCAGACUUGACGAAGCUG
Summary of the method: as §1

Sequence | self-aminoacylation [1] | self-aminoacylation [2] | self-aminoacylation [3] | self-aminoacylation [4] | self-aminoacylation [5] | self-aminoacylation [6]
AAGUUUGCCAAUAGUGGCAAG [Fam3.1 aminoacylation ribozyme variant] | 0.868 | 0.722 | 0.615 | 0.707 | 0.739 | 0.933
AAGUUUGCGAAUAGACGCAAG [Fam3.1 aminoacylation ribozyme variant] | 0.874 | 0.597 | 0.559 | 0.528 | 0.658 | 1.08
AAGUUUGCGCAUAGUCGCAAG [Fam3.1 aminoacylation ribozyme variant] | 1.35 | 0.712 | 1.06 | 0.99 | 0.774 | 2.97
AAGUUUGCUAAAAGACGCAAG [Fam3.1 aminoacylation ribozyme variant] | 0.53 | 0.412 | 0.713 | 0.532 | 0.43 | 0.761
AAGUUUGCUAACAGGCGCAAG [Fam3.1 aminoacylation ribozyme variant] | 0.795 | 0.771 | 0.868 | 0.832 | 0.878 | 1.2
AAGUUUGCUAACAGUCGGAAG [Fam3.1 aminoacylation ribozyme variant] | 1.85 | 0.559 | 0.874 | 0.974 | 0.843 | 6.87
AAGUUUGCUAAGAGUCGCGAG [Fam3.1 aminoacylation ribozyme variant] | 1.85 | 1.35 | 1.34 | 1.07 | 1.23 | 0.783
AAGUUUGCUAAUAAUCGCCAG [Fam3.1 aminoacylation ribozyme variant] | 0.769 | 0.642 | 0.798 | 0.804 | 0.734 | 0.708
AAGUUUGCUAAUACUCGCAGG [Fam3.1 aminoacylation ribozyme variant] | 0.766 | 0.977 | 0.709 | 0.748 | 0.655 | 0.89
AAGUUUGCUAAUACUCGCGAG [Fam3.1 aminoacylation ribozyme variant] | 1.52 | 1.35 | 1.19 | 1.02 | 1.09 | 5.73
AAGUUUGCUAAUAGACGCAAA [Fam3.1 aminoacylation ribozyme variant] | 0.532 | 1.03 | 0.892 | 0.973 | 1.14 | 1.11
AAGUUUGCUAAUAGACGCCAG [Fam3.1 aminoacylation ribozyme variant] | 0.72 | 0.453 | 0.448 | 0.568 | 0.494 | 0.535
AAGUUUGCUAAUAGACGGAAG [Fam3.1 aminoacylation ribozyme variant] | 0.764 | 0.406 | 0.584 | 0.637 | 0.544 | 0.91
AAGUUUGCUAAUAGCUGCAAG [Fam3.1 aminoacylation ribozyme variant] | 0.5 | 0.59 | 0.663 | 0.599 | 0.59 | 0.88
AAGUUUGCUAAUAGGCGAAAG [Fam3.1 aminoacylation ribozyme variant] | 0.899 | 0.642 | 0.838 | 0.707 | 0.769 | 1.31
AAGUUUGCUAAUAGGCGCAAG [Fam3.1 aminoacylation ribozyme variant] | 0.641 | 0.558 | 0.634 | 0.608 | 0.59 | 0.866
AAGUUUGCUAAUAGGCGCAUG [Fam3.1 aminoacylation ribozyme variant] | 0.851 | 0.707 | 0.684 | 0.735 | 0.733 | 1.07
AAGUUUGCUAAUAGUAGAAAG [Fam3.1 aminoacylation ribozyme variant] | 1.33 | 1.3 | 1.18 | 1.68 | 1.55 | 1.06
AAGUUUGCUAAUAGUAGCCAG [Fam3.1 aminoacylation ribozyme variant] | 2.24 | 0.78 | 0.769 | 0.868 | 0.77 | 1.04
AAGUUUGCUAAUAGUCACAAU [Fam3.1 aminoacylation ribozyme variant] | 1.11 | 0.82 | 1.19 | 1.18 | 1.18 | 1.14
AAGUUUGCUAAUAGUCACAGG [Fam3.1 aminoacylation ribozyme variant] | 1.29 | 1.07 | 1.33 | 1.32 | 1.32 | 1.66
AAGUUUGCUAAUAGUCACGAG [Fam3.1 aminoacylation ribozyme variant] | 1.34 | 0.881 | 1.22 | 1.26 | 1.33 | 1.54
AAGUUUGCUAAUAGUCCCAAA [Fam3.1 aminoacylation ribozyme variant] | 1.37 | 0.897 | 0.875 | 1.01 | 0.889 | 0.94
AAGUUUGCUAAUAGUCGAACG [Fam3.1 aminoacylation ribozyme variant] | 0.668 | 0.67 | 0.699 | 0.713 | 0.828 | 1.19
AAGUUUGCUAAUAGUCGAGAG [Fam3.1 aminoacylation ribozyme variant] | 1.61 | 0.989 | 1.17 | 1.28 | 1.17 | 1.97
AAGUUUGCUAAUAGUCGCACA [Fam3.1 aminoacylation ribozyme variant] | 1.12 | 1.15 | 1.29 | 1.45 | 1.37 | 1.64
